# Test results reported in publication PMC2702278.
# Sequences of proteins named here, by UniProt entry; tags and fusion partners are left off.
# UniProt P11940: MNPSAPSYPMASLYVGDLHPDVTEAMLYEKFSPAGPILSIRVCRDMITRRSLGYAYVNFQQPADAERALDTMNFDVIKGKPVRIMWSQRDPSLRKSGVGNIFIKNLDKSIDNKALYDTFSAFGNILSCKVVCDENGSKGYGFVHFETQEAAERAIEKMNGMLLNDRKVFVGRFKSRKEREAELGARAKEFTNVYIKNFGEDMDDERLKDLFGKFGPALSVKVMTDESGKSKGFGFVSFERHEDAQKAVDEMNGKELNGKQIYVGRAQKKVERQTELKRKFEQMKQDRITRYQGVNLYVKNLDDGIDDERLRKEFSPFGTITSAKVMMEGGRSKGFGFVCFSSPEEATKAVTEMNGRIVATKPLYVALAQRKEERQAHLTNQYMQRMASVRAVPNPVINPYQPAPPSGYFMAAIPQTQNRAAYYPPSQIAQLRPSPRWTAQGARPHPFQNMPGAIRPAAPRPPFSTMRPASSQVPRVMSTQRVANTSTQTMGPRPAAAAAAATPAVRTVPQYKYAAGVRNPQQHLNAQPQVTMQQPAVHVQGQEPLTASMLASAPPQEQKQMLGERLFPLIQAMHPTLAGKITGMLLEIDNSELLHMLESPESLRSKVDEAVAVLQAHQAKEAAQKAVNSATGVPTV
# UniProt Q7Z6B7: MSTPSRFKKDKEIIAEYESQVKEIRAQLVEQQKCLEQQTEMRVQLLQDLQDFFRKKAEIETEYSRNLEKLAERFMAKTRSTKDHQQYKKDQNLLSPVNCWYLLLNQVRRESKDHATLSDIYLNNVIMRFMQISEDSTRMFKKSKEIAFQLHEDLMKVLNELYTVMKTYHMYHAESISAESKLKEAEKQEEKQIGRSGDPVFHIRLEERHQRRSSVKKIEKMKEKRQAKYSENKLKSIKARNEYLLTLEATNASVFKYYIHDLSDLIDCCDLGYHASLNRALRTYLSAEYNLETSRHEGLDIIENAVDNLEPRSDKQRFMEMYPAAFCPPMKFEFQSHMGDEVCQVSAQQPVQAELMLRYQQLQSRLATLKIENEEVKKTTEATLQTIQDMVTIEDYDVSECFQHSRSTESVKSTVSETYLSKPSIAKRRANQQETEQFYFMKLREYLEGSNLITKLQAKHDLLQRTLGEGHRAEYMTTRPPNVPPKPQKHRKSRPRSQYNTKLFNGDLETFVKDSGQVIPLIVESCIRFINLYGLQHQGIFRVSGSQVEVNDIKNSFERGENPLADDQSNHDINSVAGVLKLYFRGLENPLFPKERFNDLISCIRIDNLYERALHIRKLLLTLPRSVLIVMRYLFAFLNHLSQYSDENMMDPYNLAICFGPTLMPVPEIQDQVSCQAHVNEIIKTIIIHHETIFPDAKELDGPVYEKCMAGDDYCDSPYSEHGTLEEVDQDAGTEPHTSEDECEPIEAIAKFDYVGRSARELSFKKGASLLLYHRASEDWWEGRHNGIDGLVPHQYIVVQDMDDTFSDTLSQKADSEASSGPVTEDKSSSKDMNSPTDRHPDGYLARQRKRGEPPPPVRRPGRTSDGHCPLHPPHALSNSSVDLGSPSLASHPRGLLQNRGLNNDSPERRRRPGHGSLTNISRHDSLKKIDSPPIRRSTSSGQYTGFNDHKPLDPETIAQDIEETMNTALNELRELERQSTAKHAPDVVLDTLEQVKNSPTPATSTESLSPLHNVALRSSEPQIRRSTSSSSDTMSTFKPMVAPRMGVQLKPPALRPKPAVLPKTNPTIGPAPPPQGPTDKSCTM
# UniProt Q9UQ35: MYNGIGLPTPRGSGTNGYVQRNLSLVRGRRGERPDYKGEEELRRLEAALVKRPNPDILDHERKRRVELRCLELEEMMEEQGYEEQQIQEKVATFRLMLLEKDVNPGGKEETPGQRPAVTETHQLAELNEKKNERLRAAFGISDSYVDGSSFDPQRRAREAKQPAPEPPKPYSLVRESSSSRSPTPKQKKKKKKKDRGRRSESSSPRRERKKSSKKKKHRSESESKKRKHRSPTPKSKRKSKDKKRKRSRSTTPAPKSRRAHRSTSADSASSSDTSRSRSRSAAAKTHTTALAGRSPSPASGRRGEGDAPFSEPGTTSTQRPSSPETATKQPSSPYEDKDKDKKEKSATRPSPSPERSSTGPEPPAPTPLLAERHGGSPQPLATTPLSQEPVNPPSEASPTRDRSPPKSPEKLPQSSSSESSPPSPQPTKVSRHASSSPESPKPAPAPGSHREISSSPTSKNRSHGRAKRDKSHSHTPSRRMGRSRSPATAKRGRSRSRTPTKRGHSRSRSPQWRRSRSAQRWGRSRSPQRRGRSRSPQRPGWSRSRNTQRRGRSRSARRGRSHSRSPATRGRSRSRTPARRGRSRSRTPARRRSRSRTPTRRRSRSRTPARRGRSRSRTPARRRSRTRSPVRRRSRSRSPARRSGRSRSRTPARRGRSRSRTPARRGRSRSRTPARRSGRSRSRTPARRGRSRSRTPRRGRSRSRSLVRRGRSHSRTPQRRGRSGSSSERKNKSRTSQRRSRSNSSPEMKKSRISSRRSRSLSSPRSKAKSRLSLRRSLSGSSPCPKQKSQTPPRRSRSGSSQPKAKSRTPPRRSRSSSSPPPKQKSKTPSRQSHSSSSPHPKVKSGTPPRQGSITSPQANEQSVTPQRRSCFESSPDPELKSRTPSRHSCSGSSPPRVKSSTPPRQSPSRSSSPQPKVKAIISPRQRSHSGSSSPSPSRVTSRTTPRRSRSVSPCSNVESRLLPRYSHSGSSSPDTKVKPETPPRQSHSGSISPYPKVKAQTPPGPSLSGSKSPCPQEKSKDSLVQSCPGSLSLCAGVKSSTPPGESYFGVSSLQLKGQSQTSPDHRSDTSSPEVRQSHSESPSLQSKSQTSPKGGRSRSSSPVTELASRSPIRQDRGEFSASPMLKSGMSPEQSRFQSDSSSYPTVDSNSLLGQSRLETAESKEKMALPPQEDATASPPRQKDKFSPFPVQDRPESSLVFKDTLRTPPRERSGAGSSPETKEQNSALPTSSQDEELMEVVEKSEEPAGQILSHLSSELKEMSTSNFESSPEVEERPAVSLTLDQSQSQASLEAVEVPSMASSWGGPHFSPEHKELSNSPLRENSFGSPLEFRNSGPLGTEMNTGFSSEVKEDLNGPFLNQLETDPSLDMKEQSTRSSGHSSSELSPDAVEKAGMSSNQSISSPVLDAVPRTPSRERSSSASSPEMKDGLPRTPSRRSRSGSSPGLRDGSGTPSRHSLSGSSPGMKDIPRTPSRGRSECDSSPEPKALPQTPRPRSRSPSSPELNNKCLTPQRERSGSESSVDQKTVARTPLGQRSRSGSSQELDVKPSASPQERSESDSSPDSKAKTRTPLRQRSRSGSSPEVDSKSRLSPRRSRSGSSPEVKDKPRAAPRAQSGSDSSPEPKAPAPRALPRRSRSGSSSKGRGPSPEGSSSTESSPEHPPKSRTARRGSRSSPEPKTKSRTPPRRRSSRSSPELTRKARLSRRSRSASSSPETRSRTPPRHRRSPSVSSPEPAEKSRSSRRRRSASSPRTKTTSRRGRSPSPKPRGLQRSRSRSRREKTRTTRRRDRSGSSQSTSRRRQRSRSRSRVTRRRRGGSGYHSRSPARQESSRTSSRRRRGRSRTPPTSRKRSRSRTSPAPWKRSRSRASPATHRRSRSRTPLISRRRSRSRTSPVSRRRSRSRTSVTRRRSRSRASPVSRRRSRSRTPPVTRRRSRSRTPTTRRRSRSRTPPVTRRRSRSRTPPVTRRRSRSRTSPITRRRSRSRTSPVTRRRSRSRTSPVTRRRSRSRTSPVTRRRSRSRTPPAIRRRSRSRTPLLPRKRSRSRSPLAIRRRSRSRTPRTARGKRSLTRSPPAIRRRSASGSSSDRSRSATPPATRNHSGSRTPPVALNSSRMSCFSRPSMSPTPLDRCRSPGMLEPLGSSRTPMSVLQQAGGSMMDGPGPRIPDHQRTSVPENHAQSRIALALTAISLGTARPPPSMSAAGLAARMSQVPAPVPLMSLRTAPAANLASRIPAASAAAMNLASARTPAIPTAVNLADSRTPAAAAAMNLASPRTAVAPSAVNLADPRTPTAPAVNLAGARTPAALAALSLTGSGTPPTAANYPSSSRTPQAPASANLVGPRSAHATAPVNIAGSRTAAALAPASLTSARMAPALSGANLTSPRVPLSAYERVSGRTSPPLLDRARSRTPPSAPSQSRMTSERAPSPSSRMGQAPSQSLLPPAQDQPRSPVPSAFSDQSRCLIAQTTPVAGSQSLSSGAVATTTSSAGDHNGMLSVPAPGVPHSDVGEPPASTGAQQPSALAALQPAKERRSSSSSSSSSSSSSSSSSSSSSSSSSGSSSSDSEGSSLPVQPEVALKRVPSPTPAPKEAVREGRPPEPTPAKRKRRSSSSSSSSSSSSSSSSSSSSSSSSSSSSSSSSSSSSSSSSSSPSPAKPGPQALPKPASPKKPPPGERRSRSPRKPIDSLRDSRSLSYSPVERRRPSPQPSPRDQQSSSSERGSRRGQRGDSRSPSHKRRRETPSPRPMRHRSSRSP
# UniProt Q92841: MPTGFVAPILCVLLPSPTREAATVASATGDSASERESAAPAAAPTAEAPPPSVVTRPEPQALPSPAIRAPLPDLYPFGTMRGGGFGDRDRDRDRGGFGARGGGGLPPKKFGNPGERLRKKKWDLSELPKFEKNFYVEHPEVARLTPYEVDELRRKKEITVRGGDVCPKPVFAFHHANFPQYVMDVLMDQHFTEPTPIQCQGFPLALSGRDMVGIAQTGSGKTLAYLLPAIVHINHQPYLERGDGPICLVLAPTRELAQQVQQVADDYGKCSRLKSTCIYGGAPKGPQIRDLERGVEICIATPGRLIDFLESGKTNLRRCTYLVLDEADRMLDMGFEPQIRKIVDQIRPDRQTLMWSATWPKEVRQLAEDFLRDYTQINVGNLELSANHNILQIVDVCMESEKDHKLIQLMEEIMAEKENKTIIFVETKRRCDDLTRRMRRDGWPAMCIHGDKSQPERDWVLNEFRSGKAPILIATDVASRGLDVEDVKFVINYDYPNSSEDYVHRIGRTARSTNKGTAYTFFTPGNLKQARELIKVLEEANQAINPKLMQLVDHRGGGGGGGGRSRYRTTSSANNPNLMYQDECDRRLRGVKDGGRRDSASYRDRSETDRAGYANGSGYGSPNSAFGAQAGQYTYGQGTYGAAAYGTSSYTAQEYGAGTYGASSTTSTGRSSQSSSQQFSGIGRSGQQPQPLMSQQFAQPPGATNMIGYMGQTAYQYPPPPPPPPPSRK
# UniProt Q70E73: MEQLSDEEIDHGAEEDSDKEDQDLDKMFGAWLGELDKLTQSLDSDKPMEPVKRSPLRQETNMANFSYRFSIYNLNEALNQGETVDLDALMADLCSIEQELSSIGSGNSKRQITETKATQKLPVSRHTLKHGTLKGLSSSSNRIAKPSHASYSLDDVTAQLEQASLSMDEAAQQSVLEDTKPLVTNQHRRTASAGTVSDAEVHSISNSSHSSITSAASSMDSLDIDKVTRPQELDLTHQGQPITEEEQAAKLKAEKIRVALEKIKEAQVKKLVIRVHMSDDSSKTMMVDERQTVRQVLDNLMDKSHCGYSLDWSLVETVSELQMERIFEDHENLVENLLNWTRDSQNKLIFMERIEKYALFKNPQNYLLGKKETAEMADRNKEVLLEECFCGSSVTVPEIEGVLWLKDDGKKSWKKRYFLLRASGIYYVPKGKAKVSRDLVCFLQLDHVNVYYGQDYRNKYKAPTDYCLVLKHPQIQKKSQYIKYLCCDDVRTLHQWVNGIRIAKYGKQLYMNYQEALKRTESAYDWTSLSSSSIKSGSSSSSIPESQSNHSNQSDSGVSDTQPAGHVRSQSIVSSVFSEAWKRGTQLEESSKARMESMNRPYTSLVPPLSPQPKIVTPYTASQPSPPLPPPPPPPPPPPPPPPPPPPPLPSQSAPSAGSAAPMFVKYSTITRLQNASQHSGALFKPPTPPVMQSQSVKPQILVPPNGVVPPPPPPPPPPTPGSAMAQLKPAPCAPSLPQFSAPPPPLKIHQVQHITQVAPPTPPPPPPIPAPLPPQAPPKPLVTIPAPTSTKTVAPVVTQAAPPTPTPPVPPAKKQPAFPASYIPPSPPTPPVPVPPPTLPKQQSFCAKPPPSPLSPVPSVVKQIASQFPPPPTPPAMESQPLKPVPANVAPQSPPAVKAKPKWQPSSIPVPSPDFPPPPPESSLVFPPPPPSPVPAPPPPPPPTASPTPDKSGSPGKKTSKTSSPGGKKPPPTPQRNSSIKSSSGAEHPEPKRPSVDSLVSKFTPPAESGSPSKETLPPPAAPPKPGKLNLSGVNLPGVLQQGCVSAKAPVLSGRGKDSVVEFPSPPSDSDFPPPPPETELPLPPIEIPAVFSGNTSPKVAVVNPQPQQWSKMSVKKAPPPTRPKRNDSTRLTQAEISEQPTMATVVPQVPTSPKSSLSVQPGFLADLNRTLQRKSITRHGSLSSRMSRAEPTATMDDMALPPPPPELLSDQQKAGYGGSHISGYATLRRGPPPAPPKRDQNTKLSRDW
# How the values were obtained:
# [1] = target: GST-fusion SH3C domain of Ruk/CIN85 (UniProt Q96B97); assay: affinity purification with mass spectrometry; GST-fusion SH3 domain (about 10 μg on 40 μl Glutathione Sepharose 4B) incubated 4 h at 4°C with HeLa lysate pre-cleared on GST beads; 20 mM Tris pH 7.5, 150 mM NaCl, 5 mM EDTA, 5% glycerol, 0.5% Triton X-100 (washes 0.1%); SDS-PAGE, in-gel trypsin digestion, LC-MS/MS; hits also found with GST alone removed; only the target purified
# [2] = target: GST-fusion SH3A domain of Ruk/CIN85 (UniProt Q96B97); assay: as above
Molecule,binding [1],binding [2]
MAP4 (from UniProt P27816 1-1152),binds,binds
CFBP (from UniProt Q96EY5 1-273),,binds
IRF2-BP2 (from UniProt Q7Z5L9 1-587),binds,binds
BAT2 (from UniProt P48634 1-2157),binds,binds
Atx2 (from UniProt Q99700 1-1313),,binds
GCP3 (from UniProt Q96CW5 1-907),,binds
PABPC1 (from UniProt P11940 1-636),binds,binds
GCP2 (from UniProt Q9BSJ2 1-902),,binds
N-WASP (from UniProt O00401 1-505),binds,binds
IRF2-BP1 (from UniProt Q8IU81 1-584),,binds
ELKS (from UniProt Q8IUD2 1-1116),binds,binds
srGAP1 (from UniProt Q7Z6B7 1-1085),binds,binds
SRm300 (from UniProt Q9UQ35 1-2752),binds,binds
DDX17 (from UniProt Q92841 1-729),binds,binds
POM121 (from UniProt Q96HA1 1-1249),binds,binds
WIP (from UniProt O43516 1-503),binds,binds
Katanin p80 (from UniProt Q9BVA0 1-655),binds,binds
Lamellipodin (from UniProt Q70E73 1-1250),,binds
"3BP-2 (protein, UniProt P78314 1-561) MAAEEMHWPVPMKAIGAQNLLTMPGGVAKAGYLHKKGGTQLQLLKWPLRFVIIHKRCVYYFKSSTSASPQGAFSLSGYNRVMRAAEETTSNNVFPFKIIHISKKHRTWFFSASSEEERKSWMALLRREIGHFHEKKDLPLDTSDSSSDTDSFYGAVERPVDISLSPYPTDNEDYEHDDEDDSYLEPDSPEPGRLEDALMHPPAYPPPPVPTPRKPAFSDMPRAHSFTSKGPGPLLPPPPPKHGLPDVGLAAEDSKRDPLCPRRAEPCPRVPATPRRMSDPPLSTMPTAPGLRKPPCFRESASPSPEPWTPGHGACSTSSAAIMATATSRNCDKLKSFHLSPRGPPTSEPPPVPANKPKFLKIAEEDPPREAAMPGLFVPPVAPRPPALKLPVPEAMARPAVLPRPEKPQLPHLQRSPPDGQSFRSFSFEKPRQPSQADTGGDDSDEDYEKVPLPNSVFVNTTESCEVERLFKATSPRGEPQDGLYCIRNSSTKSGKVLVVWDETSNKVRNYRIFEKDSKFYLEGEVLFVSVGSMVEHYHTHVLPSHQSLLLRHPYGYTGPR",,binds
"Plakophilin 3 (protein, UniProt Q9Y446 1-797) MQDGNFLLSALQPEAGVCSLALPSDLQLDRRGAEGPEAERLRAARVQEQVRARLLQLGQQPRHNGAAEPEPEAETARGTSRGQYHTLQAGFSSRSQGLSGDKTSGFRPIAKPAYSPASWSSRSAVDLSCSRRLSSAHNGGSAFGAAGYGGAQPTPPMPTRPVSFHERGGVGSRADYDTLSLRSLRLGPGGLDDRYSLVSEQLEPAATSTYRAFAYERQASSSSSRAGGLDWPEATEVSPSRTIRAPAVRTLQRFQSSHRSRGVGGAVPGAVLEPVARAPSVRSLSLSLADSGHLPDVHGFNSYGSHRTLQRLSSGFDDIDLPSAVKYLMASDPNLQVLGAAYIQHKCYSDAAAKKQARSLQAVPRLVKLFNHANQEVQRHATGAMRNLIYDNADNKLALVEENGIFELLRTLREQDDELRKNVTGILWNLSSSDHLKDRLARDTLEQLTDLVLSPLSGAGGPPLIQQNASEAEIFYNATGFLRNLSSASQATRQKMRECHGLVDALVTSINHALDAGKCEDKSVENAVCVLRNLSYRLYDEMPPSALQRLEGRGRRDLAGAPPGEVVGCFTPQSRRLRELPLAADALTFAEVSKDPKGLEWLWSPQIVGLYNRLLQRCELNRHTTEAAAGALQNITAGDRRWAGVLSRLALEQERILNPLLDRVRTADHHQLRSLTGLIRNLSRNARNKDEMSTKVVSHLIEKLPGSVGEKSPPAEVLVNIIAVLNNLVVASPIAARDLLYFDGLRKLIFIKKKRDSPDSEKSSRAASSLLANLWQYNKLHRDFRAKGYRKEDFLGP",,binds
"9G8 (protein, UniProt Q16629 1-238) MSRYGRYGGETKVYVGNLGTGAGKGELERAFSYYGPLRTVWIARNPPGFAFVEFEDPRDAEDAVRGLDGKVICGSRVRVELSTGMPRRSRFDRPPARRPFDPNDRCYECGEKGHYAYDCHRYSRRRRSRSRSRSHSRSRGRRYSRSRSRSRGRRSRSASPRRSRSISLRRSRSASLRRSRSGSIKGSRYFQSPSRSRSRSRSISRPRSSRSKSRSPSPKRSRSPSGSPRRSASPERMD",,binds
"RASAL2 (protein, UniProt Q9UJF2 1-1139) MQTPEVPAERSPRRRSISGTSTSEKPNSMDTANTSPFKVPGFFSKRLKGSIKRTKSQSKLDRNTSFRLPSLRSTDDRSRGLPKLKESRSHESLLSPCSTVECLDLGRGEPVSVKPLHSSILGQDFCFEVTYLSGSKCFSCNSASERDKWMENLRRTVQPNKDNCRRAENVLRLWIIEAKDLAPKKKYFCELCLDDTLFARTTSKTKADNIFWGEHFEFFSLPPLHSITVHIYKDVEKKKKKDKNNYVGLVNIPTASVTGRQFVEKWYPVSTPTPNKGKTGGPSIRIKSRFQTITILPMEQYKEFAEFVTSNYTMLCSVLEPVISVRNKEELACALVHILQSTGRAKDFLTDLVMSEVDRCGEHDVLIFRENTIATKSIEEYLKLVGQQYLHDALGEFIKALYESDENCEVDPSKCSSSELIDHQSNLKMCCELAFCKIINSYCVFPRELKEVFASWKQQCLNRGKQDISERLISASLFLRFLCPAIMSPSLFNLMQEYPDDRTSRTLTLIAKVIQNLANFAKFGNKEEYMAFMNDFLEHEWGGMKRFLLEISNPDTISNTPGFDGYIDLGRELSVLHSLLWEVVSQLDKGENSFLQATVAKLGPLPRVLADITKSLTNPTPIQQQLRRFTEHNSSPNVSGSLSSGLQKIFEDPTDSDLHKLKSPSQDNTDSYFRGKTLLLVQQASSQSMTYSEKDERESSLPNGRSVSLMDLQDTHAAQVEHASVMLDVPIRLTGSQLSITQVASIKQLRETQSTPQSAPQVRRPLHPALNQPGGLQPLSFQNPVYHLNNPIPAMPKASIDSSLENLSTASSRSQSNSEDFKLSGPSNSSMEDFTKRSTQSEDFSRRHTVPDRHIPLALPRQNSTGQAQIRKVDQGGLGARAKAPPSLPHSASLRSTGSMSVVSAALVAEPVQNGSRSRQQSSSSRESPVPKVRAIQRQQTQQVQSPVDSATMSPVERTAAWVLNNGQYEEDVEETEQNLDEAKHAEKYEQEITKLKERLRVSSRRLEEYERRLLVQEQQMQKLLLEYKARLEDSEERLRRQQEEKDSQMKSIISRLMAVEEELKKDHAEMQAVIDAKQKIIDAQEKRIVSLDSANTRLMSALTQVKERYSMQVRNGISPTNPTKLSITENGEFKNSSC",binds,
"GAR22 (protein, UniProt Q99501 1-681) MADPVAGIAGSAAKSVRPFRSSEAYVEAMKEDLAEWLNALYGLGLPGGGDGFLTGLATGTTLCQHANAVTEAARALAAARPARGVAFQAHSVVPGSFMARDNVATFIGWCRVELGVPEVLMFETEDLVLRKNEKSVVLCLLEVARRGARLGLLAPRLVQFEQEIERELRAAPPAPNAPAAGEDTTETAPAPGTPARGPRMTPSDLRNLDELVREILGRCTCPDQFPMIKVSEGKYRVGDSSLLIFVRVLRSHVMVRVGGGWDTLEHYLDKHDPCRCSSTAHRPPQPRVCTFSPQRVSPTTSPRPASPVPGSERRGSRPEMTPVSLRSTKEGPETPPRPRDQLPPHPRSRRYSGDSDSSASSAQSGPLGTRSDDTGTGPRRERPSRRLTTGTPASPRRPPALRSQSRDRLDRGRPRGAPGGRGAQLSVPSPARRARSQSREEQAVLLVRRDRDGQHSWVPRGRGSGGSGRSTPQTPRARSPAAPRLSRVSSPSPELGTTPASIFRTPLQLDPQQEQQLFRRLEEEFLANARALEAVASVTPTGPVPDPARAPDPPAPDSAYCSSSSSSSSLSVLGGKCGQPGDSGRTANGLPGPRSQALSSSSDEGSPCPGMGGPLDAPGSPLACTEPSRTWARGRMDTQPDRKPSRIPTPRGPRRPSGPAELGTWHALHSVTPRAEPDSWM",,binds
"PEPP-2 (protein, UniProt Q9HAU0 1-1116) MAADLNLEWISLPRSWTYGITRGGRVFFINEEAKSTTWLHPVTGEAVVTGHRRQSTDLPTGWEEAYTFEGARYYINHNERKVTCKHPVTGQPSQDNCIFVVNEQTVATMTSEEKKERPISMINEASNYNVTSDYAVHPMSPVGRTSRASKKVHNFGKRSNSIKRNPNAPVVRRGWLYKQDSTGMKLWKKRWFVLSDLCLFYYRDEKEEGILGSILLPSFQIALLTSEDHINRKYAFKAAHPNMRTYYFCTDTGKEMELWMKAMLDAALVQTEPVKRVDKITSENAPTKETNNIPNHRVLIKPEIQNNQKNKEMSKIEEKKALEAEKYGFQKDGQDRPLTKINSVKLNSLPSEYESGSACPAQTVHYRPINLSSSENKIVNVSLADLRGGNRPNTGPLYTEADRVIQRTNSMQQLEQWIKIQKGRGHEEETRGVISYQTLPRNMPSHRAQIMARYPEGYRTLPRNSKTRPESICSVTPSTHDKTLGPGAEEKRRSMRDDTMWQLYEWQQRQFYNKQSTLPRHSTLSSPKTMVNISDQTMHSIPTSPSHGSIAAYQGYSPQRTYRSEVSSPIQRGDVTIDRRHRAHHPKHVYVPDRRSVPAGLTLQSVSPQSLQGKTLSQDEGRGTLYKYRPEEVDIDAKLSRLCEQDKVVHALEEKLQQLHKEKYTLEQALLSASQEIEMHADNPAAIQTVVLQRDDLQNGLLSTCRELSRATAELERAWREYDKLEYDVTVTRNQMQEQLDHLGEVQTESAGIQRAQIQKELWRIQDVMEGLSKHKQQRGTTEIGMIGSKPFSTVKYKNEGPDYRLYKSEPELTTVAEVDESNGEEKSEPVSEIETSVVKGSHFPVGVVPPRAKSPTPESSTIASYVTLRKTKKMMDLRTERPRSAVEQLCLAESTRPRMTVEEQMERIRRHQQACLREKKKGLNVIGASDQSPLQSPSNLRDNPFRTTQTRRRDDKELDTAIRENDVKPDHETPATEIVQLKETEPQNVDFSKELKKTENISYEMLFEPEPNGVNSVEMMDKERNKDKMPEDVTFSPQDETQTANHKPEEHPEENTKNSVDEQEETVISYESTPEVSRGNQTMAVKSLSPSPESSASPVPSTQPQLTEGSHFMCV",binds,

# No constants are given. Whether binding was seen depends on the method and setting. In cells and extracts the contact can be indirect. Here binding means that the protein was enriched with, or labelled near, the bait; the list need not be complete.
